According to the supplement of paper PMC12889115:
The other results are listed elsewhere or left out. These are raw signals, not scaled to a control.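 Primary screen: polymyxin B was added at a level permeabilizing Salmonella outer membranes while sparing inner membranes. DMSO wells, both with and without polymyxin B, established maximum growth. Plate-to-plate variation meant each plate was ranked on its own, and the lowest-OD600 compounds were selected as hits.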

Test system: Salmonella enterica serovar Typhimurium SL1344
Assay: bacterial growth OD600 after 18 h with compound and polymyxin B; higher = more bacterial growth (less inhibition)
Settings: 50 µM, Mueller-Hinton broth

| Compound | bacterial growth OD600 (polymyxin B 1 µg/mL) | bacterial growth OD600 (polymyxin B 0.75 µg/mL) |
| --- | --- | --- |
| COc1ccccc1C(=O)Nc1ccnn1C1CCN(C(=O)Cn2ccc(C)n2)CC1 | 1.01 |  |
| COCC(=O)Nc1cc(C(=O)NC2CCN(Cc3ccccc3)C2)c2c(c1)nc(C1CCC1)n2C (configuration not stated) |  | 0.787 |
| Cc1ccc(CN(C)C(=O)c2cc(Cn3ccc4ccccc43)[nH]n2)o1 |  | 0.508 |
| COc1ccc(Cl)cc1NC(=O)CCC1CCCN(C(=O)CCCn2cncn2)C1 (configuration not stated) | 0.803 |  |
| CCCc1cc(CNC(=O)c2ccc(N3CCN(C(C)C)C(CC)C3)nc2)on1 (configuration not stated) | 0.892 |  |
| COC(=O)[C@@H]1CCCN1C(=O)c1cc(NS(=O)(=O)N(C)C)cc2nc(CC(C)C)n(C)c12 |  | 0.842 |
| Cc1ccccc1N1CCN(C2CCCN(C(=O)C3CCCCCC3)C2)CC1 (configuration not stated) | 0.847 |  |
| COCCNC(=O)c1ccc(OC)cc1OC1CCN(Cc2nccn2C)CC1 | 1.01 |  |
| CCOC(=O)C1(Cc2ccccc2)CCN(Cc2ccc(OC)cc2F)CC1 | 0.801 |  |
| Cc1nc2ccccc2n1CCC(=O)N1CCCC(Nc2ccc(F)cc2)C1 (configuration not stated) | 0.967 |  |
| CCOC(=O)N1CCC(N2CCCC(C(=O)c3cccc4ccccc34)C2)CC1 (configuration not stated) | 0.709 |  |
| CCn1ccnc1CN1CCC2(CCCN(Cc3cc(OC)ccc3F)C2=O)C1 (configuration not stated) | 0.812 |  |
| COc1ccccc1Oc1ncccc1CNC(=O)C1CCOCC1 | 1.04 |  |
| Cc1csc(C(C)NC(=O)c2cc(COc3ccc4c(c3)OCO4)[nH]n2)n1 (configuration not stated) | 0.859 |  |
| COc1ccc(Cc2noc(-c3ccc(N(C)Cc4nnc(C)o4)nc3)n2)cc1 | 0.87 |  |
| O=C(CC(c1ccccc1)c1ccc2c(c1)OCO2)NCCc1cnccn1 (configuration not stated) | 0.843 |  |

| Compound | bacterial growth OD600 (polymyxin B 1 µg/mL) | bacterial growth OD600 (polymyxin B 0.75 µg/mL) |
| --- | --- | --- |
| CCN(Cc1c[nH]cn1)CC1CCCN(CCc2cccc(F)c2)C1 (configuration not stated) |  | 0.85 |
| CCOC(=O)C1(Cc2ccc(F)cc2)CCCN(C(=O)c2cc(CC(C)C)n[nH]2)C1 (configuration not stated) |  | 0.528 |
| CCc1noc(CN(C)c2ccc(-c3nc(C(C)C)no3)cn2)n1 |  | 0.873 |
| O=C(NCC1COCCO1)C1CCN(c2nc(-c3ccccc3)nc3c2CCC3)CC1 (configuration not stated) | 0.867 |  |
| COc1ccc(F)c(CN2CCCC3(CCN(c4cnccn4)C3)C2=O)c1 (configuration not stated) | 0.906 |  |
| OCC1(Cc2ccccc2F)CCCN(Cc2c(F)cccc2Cl)C1 (configuration not stated) | 0.6 |  |
| Cc1c(C(C)NCc2cccc(F)c2)cnn1-c1ccccc1 (configuration not stated) |  | 0.373 |
| CN(CCC1CCCCO1)C(=O)c1coc(COc2cccc(F)c2)n1 (configuration not stated) | 0.898 |  |
| Cc1nccn1-c1ccc(CNC(=O)C2CCC(=O)N(Cc3ccccc3F)C2)cc1 (configuration not stated) | 0.932 |  |
| CCn1c(-c2cccc(OC)c2)nc2cc(NC(C)=O)cc(C(=O)NC(C)Cc3ccccn3)c21 (configuration not stated) |  | 0.879 |
| COc1ccc(C(=O)Nc2ccnn2C2CCN(C(=O)c3occc3C)CC2)cc1 | 0.956 |  |
| COc1ccccc1C(=O)NC1CC(=O)N(Cc2ccc(F)cc2)C1 (configuration not stated) | 0.924 |  |
| CSc1ccc(CN2CCCC(N3CCN(c4ccccc4C)CC3)C2)cc1 (configuration not stated) | 0.915 |  |
| CCOC(=O)C1(C/C=C/c2ccccc2)CCCN(Cc2nccs2)C1 (configuration not stated) |  | 0.004 |
| CC(C)c1ccc(NC2CCCN(C(=O)c3cc(C(C)C)n[nH]3)C2)cc1 (configuration not stated) | 0.614 |  |
| CCCc1cc(CNC(=O)c2ccc(N(C)CC)nc2)on1 | 0.933 |  |

Arranged by molecular weight (high to low): some entries from above

| Compound | bacterial growth OD600 (polymyxin B 1 µg/mL) | bacterial growth OD600 (polymyxin B 0.75 µg/mL) |
| --- | --- | --- |
| CCn1c(-c2cccc(OC)c2)nc2cc(NC(C)=O)cc(C(=O)NC(C)Cc3ccccn3)c21 (configuration not stated) |  | 0.879 |
| CCN(Cc1c[nH]cn1)CC1CCCN(CCc2cccc(F)c2)C1 (configuration not stated) |  | 0.85 |
| CCc1noc(CN(C)c2ccc(-c3nc(C(C)C)no3)cn2)n1 |  | 0.873 |
